The source of these data is PubChem BioAssay AID330 (DTP/NCI, 2004).

The list is a part of this screen's results and no random one: it gathers tests that were run many times, whatever their T/C, doses with no T/C, and many T/C values between a quarter and a half above the control. Further doses and runs are listed elsewhere. T/C: endpoint of the treated group in % of that of the vehicle group. Some entries give survivors of the animals treated and no T/C: the source holds a T/C of zero for them, seemingly a mark for toxic or unscored doses. Some doses without a T/C left all or most animals alive at the check, yet need not have been tolerated: the source hardly ever lists a survival T/C far under the control, and the zero likely stands for such cases as well. Survivors were counted at the toxicity check, usually on the fifth day, unless a day is given; later deaths do not show. Schedule codes are those of the source, read here as Q, the interval in days (D) or hours (H), X, the number of doses. Additions like (4×) give the number of equal values in this list. Some structures stand for samples that the source files as different forms (salt, stereo form or complex); doses refer to the form tested. Some entries hold several experiments; the values are given in rising order. For survival time, this PubChem deposit counts one and a half times the control or more as active, and values a quarter to a half above the control carry no call in these data; other NCI protocols may use other cut-offs. Some T/C values carry the count of animals alive at the toxicity check (mostly the fifth day); without a count, all were alive then.

In the test the test system is P388 leukemia ip, CD2F1 mice, survival T/C. The test is described as follows: NCI In Vivo Anticancer Drug Screen. Data for tumor model P388 Leukemia (intraperitoneal) in CD2F1 (CDF1) mice. The settings on record: T/C endpoint: median survival time, higher T/C = longer survival.
Where [1] appears, read: dose: 50.0 mg/kg/injection, schedule: Q01DX005 (ip), vehicle: Klucel (hydroxypropylcellulose) (HPC).
Where [2] appears, read: dose: 100.0 mg/kg/injection, schedule: Q01DX005 (ip), vehicle: Klucel (hydroxypropylcellulose) (HPC).
Setting [3] is: dose: 200.0 mg/kg/injection, schedule: Q01DX005 (ip), vehicle: Klucel (hydroxypropylcellulose) (HPC).
[4] abbreviates: dose: 240.0 mg/kg/injection, schedule: Q01DX005 (ip), vehicle: Klucel (hydroxypropylcellulose) (HPC).
Setting [5] is: dose: 200.0 mg/kg/injection, schedule: Q01DX009 (ip), vehicle: saline with Tween-80.
The mark [6] stands for this setting: dose: 20.0 mg/kg/injection, schedule: Q01DX009 (ip), vehicle: saline with Tween-80.
Where [7] appears, read: dose: 25.0 mg/kg/injection, schedule: Q01DX009 (ip), vehicle: saline.
The mark [8] stands for this setting: dose: 120.0 mg/kg/injection, schedule: Q01DX005 (ip), vehicle: saline with Tween-80.
Setting [9] is: dose: 240.0 mg/kg/injection, schedule: Q01DX005 (ip), vehicle: saline with Tween-80.
The mark [10] stands for this setting: dose: 100.0 mg/kg/injection, schedule: Q04DX002 (ip), vehicle: saline with Tween-80.
The mark [11] stands for this setting: dose: 200.0 mg/kg/injection, schedule: Q01DX005 (ip), vehicle: saline.
The mark [12] stands for this setting: dose: 100.0 mg/kg/injection, schedule: Q04DX003 (ip), vehicle: saline with Tween-80.

Regarding `CN=C(NC)c1ccc(NC(=O)c2cc(C(=O)Nc3ccc(C(=NC)NC)cc3)cc([N+](=O)[O-])c2)cc1`, the survivor count is 6 of 6 (dose: 25.0 mg/kg/injection, schedule: Q01DX005 (ip), vehicle: Klucel (hydroxypropylcellulose) (HPC)); 0 of 6 under setting [1]; 0 of 6 under setting [2]; 0 of 6 under setting [3]. Take `c1ccc2c(SCCCCCCSc3c4ccccc4nc4ccccc34)c3ccccc3nc2c1`: under setting [4], the survivor count is 6 of 6.

For the compound `O=C1CN(c2ccccc2)C(=O)CN1Nc1ccccc1`, the survivor count under setting [5] is 6 of 6. `CCc1nc(N)nc(N)c1-c1ccc(Cl)c(NN=NC)c1`: where the note is “dose: 200.0 mg/kg/injection, schedule: Q01DX005 (ip), vehicle: saline with Tween-80”, the survivor count was 0 of 6. As to `Nc1ccc(Cn2ccc3c4c(N)nc(N)nc4ccc32)cc1`, the T/C runs as follows: (dose: 5.0 mg/kg/injection, schedule: Q01DX009 (ip), vehicle: saline with Tween-80) 133 and 144 % of control; (dose: 10.0 mg/kg/injection, schedule: Q01DX009 (ip), vehicle: saline with Tween-80) 135 % of control; under setting [6], 144 % of control. The survivor count under setting [6] is recorded as 2 of 6 and the survivor count (dose: 40.0 mg/kg/injection, schedule: Q01DX009 (ip), vehicle: saline with Tween-80) is given as 2 of 6.

With `CC1CN1CCS(=O)(=O)CCN1CC1C` (stereo unspecified), under setting [5], the T/C is 127 % of control. For the compound `Clc1cnc2n[se]nc2c1`, the survivor count was 1 of 6 (dose: 200.0 mg/kg/injection, schedule: Q04DX002 (ip), vehicle: saline) and 0 of 6 (dose: 400.0 mg/kg/injection, schedule: Q04DX002 (ip), vehicle: saline).

Consider `O=NN(CCCl)C(=O)Nc1ccc(Br)cc1`, for which the T/C reads like this: (dose: 12.5 mg/kg/injection, schedule: Q01DX009 (ip), vehicle: saline) 134 % of control; under setting [7], 134 % of control. The survivor count (dose: 100.0 mg/kg/injection, schedule: Q01DX009 (ip), vehicle: suspension in saline) is 6 of 6.

With `COc1ccc(NC(=S)C#N)cc1`, the survivor count under setting [8] is 3 of 6 and the survivor count under setting [9] is 1 of 6.

In the case of `CN1c2ccccc2SC1(C)CCC(=O)O` (stereo unspecified), the survivor count under setting [4] is listed as 1 of 6. Regarding `CN1CCC2(C)CC(Br)(Cc3ccccc32)C1Cl` (stereo unspecified), under setting [3], the survivor count is 0 of 5. Regarding `O=C1NC(=O)C2C1C1C3OC3C2C2C3C(=O)NC(=O)C3C12` (stereo unspecified), the T/C was 130 % of control (dose: 25.0 mg/kg/injection, schedule: Q01DX009 (ip), vehicle: saline with Tween-80); 127 and 141 % of control (dose: 50.0 mg/kg/injection, schedule: Q01DX009 (ip), vehicle: saline with Tween-80); 141 % of control under setting [5]. For the compound `CCCCN=C(N)N/N=C(\C)c1ccc2c(c1)Cc1ccccc1-2`, the survivor count by setting is: (dose: 50.0 mg/kg/injection, schedule: Q04DX002 (ip), vehicle: saline with Tween-80) 3 of 6; under setting [10], 1 of 6. As to `CC(C)N(C(C)C)p1n(C(C)(C)C)n1C(C)(C)C`, the survivor count is 2 of 6 under setting [1], 2 of 6 under setting [2] and 0 of 6 under setting [3]. For `CC(N)C(=O)NC(Cc1ccccc1)C(=O)N1CCCC1C(=O)Nc1ccc2ccccc2c1` (stereo unspecified), the survivor count under setting [11] is recorded as 0 of 5.

Take `CCOc1cc2c(cc1C(CC)c1ccc(OCc3ccccc3)cc1)OCO2` (stereo unspecified): the survivor count under setting [3] was 6 of 6. For the compound `Nc1nc2c(c(-c3nc(N)nc4c3Cc3ccccc3-4)n1)Cc1ccccc1-2`, under setting [9], the survivor count is on record as 2 of 6.

Take `COC1/C=C/OC2(C)Oc3c(C)c(O)c4c(O)c(c(CNCc5ccccc5)c(O)c4c3C2=O)NC(=O)/C(C)=C\C=C\C(C)C(O)C(C)C(O)C(C)C(OC(C)=O)C1C` (stereo unspecified): for the setting “dose: 200.0 mg/kg/injection, schedule: Q01DX009 (ip), vehicle: other”, the survivor count is 6 of 6. `O=C(NC(Cc1ccc(O)cc1)C(=O)N=Nc1c(O)[nH]c2ccccc12)c1ccccc1` (stereo unspecified): the survivor count under setting [8] was 6 of 6. As to `CC(C)(C)c1cc(C(=O)[O-])c([OH2+])c(C(C)(C)C)c1.CC(C)(C)c1cc(C(=O)[O-])c([OH2+])c(C(C)(C)C)c1.[Mn+2]`, the survivor count under setting [9] is 0 of 6 (2×). As to `O=C(O)CCC(CCC(=O)O)(C(=O)O)C(=O)O`, the survivor count (dose: 240.0 mg/kg/injection, schedule: Q01DX005 (ip), vehicle: saline) is recorded as 6 of 6. `CCC(=O)N(C)C(C)C(=O)OC1CC(=O)N(C)c2cc(cc(OC)c2Cl)CC2(C)OC2/C=C/C(OC)C2(O)CC(OC(=O)N2)C(C)C2OC12C` (stereo unspecified): the T/C (dose: 200.0 micrograms/kg/injection, schedule: Q01DX009 (ip), vehicle: saline + alcohol) was 133 % of control (2×); the T/C (dose: 400.0 micrograms/kg/injection, schedule: Q01DX009 (ip), vehicle: saline + alcohol) is 135 and 140 % of control.

For the compound `CCCCn1cnc2c(=S)nc(N)[nH]c21`, under setting [12], the T/C is 127 % of control and the survivor count is 6 of 6. Moreover, the T/C (dose: 200.0 mg/kg/injection, schedule: Q04DX003 (ip), vehicle: saline with Tween-80) is 127 % of control.

In the case of `CCOC(=O)N1C=CC2(C=C1)CCCCCC2`, the survivor count (dose: 150.0 mg/kg/injection, schedule: Q04DX003 (ip), vehicle: Klucel (hydroxypropylcellulose) (HPC)) is listed as 3 of 6. For the compound `CCSC(=O)N1c2ccc(OC)cc2C=CC1C#N` (stereo unspecified), the T/C (dose: 400.0 mg/kg/injection, schedule: Q04DX003 (ip), vehicle: saline with Tween-80) is 127 and 130 % of control; the T/C (dose: 600.0 mg/kg/injection, schedule: Q04DX003 (ip), vehicle: saline with Tween-80) was 139 % of control [5 of 6 alive]. On to `COc1cc2c(c(OC)c1OC)-c1cccc(=O)cc1C(NC(C)=O)CC2` (stereo unspecified), for which, for the setting “dose: 2.5 mg/kg/injection, schedule: Q01DX009 (ip), vehicle: Klucel (hydroxypropylcellulose) (HPC)”, the T/C was 135 and 136 % of control. In addition, the survivor count (dose: 40.0 mg/kg/injection, schedule: Q01DX009 (ip), vehicle: Klucel (hydroxypropylcellulose) (HPC)) was 1 of 6. On to `Cn1cc(NC(=O)c2cc(NC(=O)c3cc(NC=O)cn3C)cn2C)cc1C(=O)NCCC(=N)N`, for which the survivor count (dose: 240.0 mg/kg/injection, schedule: Q01DX005 (ip), vehicle: water) is listed as 0 of 6. Take `O=C1c2ccccc2C(=O)C1(c1ccccn1)[N+](=O)[O-]`: the survivor count under setting [9] was 6 of 6. Regarding `C[As](C)SCCO`, the survivor count is listed as 5 of 5 under setting [10] and 0 of 5 (dose: 200.0 mg/kg/injection, schedule: Q04DX002 (ip), vehicle: saline with Tween-80).

Take `C[n+]1cc2ccccc2c2ccccc21`: the T/C reads like this: under setting [7], 128 % of control; (dose: 50.0 mg/kg/injection, schedule: Q01DX005 (ip), vehicle: saline) 132 % of control. For the same compound, the survivor count by setting is: (dose: 50.0 mg/kg/injection, schedule: Q01DX009 (ip), vehicle: saline) 3 of 6; (dose: 100.0 mg/kg/injection, schedule: Q01DX005 (ip), vehicle: saline) 0 of 5 and 1 of 5; (dose: 100.0 mg/kg/injection, schedule: Q01DX009 (ip), vehicle: saline) 0 of 6; (dose: 100.0 mg/kg/injection, schedule: Q01DX009 (ip), vehicle: water) 1 of 6; under setting [11], 0 of 5; (dose: 200.0 mg/kg/injection, schedule: Q01DX009 (ip), vehicle: water) 0 of 6. Moreover, the survivor count (dose: 400.0 mg/kg/injection, schedule: Q01DX009 (ip), vehicle: water) is 0 of 6. As for `Nc1ccc([N+](=O)[O-])cc1Nc1c2ccccc2nc2ccccc12`, the survivor count (dose: 200.0 mg/kg/injection, schedule: Q01DX009 (ip), vehicle: Klucel (hydroxypropylcellulose) (HPC)) was 1 of 6.
